# Test results as given in PubChem BioAssay (NCATS).
# Protein sequences, listed by entry. Tags and fused reporters are not part of them. Lines headed by an entry give the natural chain unless they say otherwise; changes in a name come on top.
# UniProt Q9UNA4: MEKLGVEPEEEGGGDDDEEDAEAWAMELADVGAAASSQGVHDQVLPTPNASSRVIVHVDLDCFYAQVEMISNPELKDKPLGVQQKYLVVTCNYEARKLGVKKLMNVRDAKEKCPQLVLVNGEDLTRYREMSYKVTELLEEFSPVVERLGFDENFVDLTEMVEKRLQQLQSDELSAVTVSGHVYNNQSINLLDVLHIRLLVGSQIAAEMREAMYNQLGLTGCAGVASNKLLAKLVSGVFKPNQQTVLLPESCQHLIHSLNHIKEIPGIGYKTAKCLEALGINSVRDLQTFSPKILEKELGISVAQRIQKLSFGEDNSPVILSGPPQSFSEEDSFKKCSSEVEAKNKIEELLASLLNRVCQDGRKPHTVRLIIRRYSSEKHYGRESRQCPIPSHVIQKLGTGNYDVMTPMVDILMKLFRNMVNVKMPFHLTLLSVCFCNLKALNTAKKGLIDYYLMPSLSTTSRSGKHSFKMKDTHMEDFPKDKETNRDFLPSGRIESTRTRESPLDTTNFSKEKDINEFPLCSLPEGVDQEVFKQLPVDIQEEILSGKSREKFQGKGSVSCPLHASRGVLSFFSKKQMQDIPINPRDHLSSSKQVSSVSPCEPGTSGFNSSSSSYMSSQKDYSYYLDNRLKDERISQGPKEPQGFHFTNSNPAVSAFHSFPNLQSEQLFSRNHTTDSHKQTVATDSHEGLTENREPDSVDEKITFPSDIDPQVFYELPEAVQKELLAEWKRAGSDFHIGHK
# UniProt Q9Y253: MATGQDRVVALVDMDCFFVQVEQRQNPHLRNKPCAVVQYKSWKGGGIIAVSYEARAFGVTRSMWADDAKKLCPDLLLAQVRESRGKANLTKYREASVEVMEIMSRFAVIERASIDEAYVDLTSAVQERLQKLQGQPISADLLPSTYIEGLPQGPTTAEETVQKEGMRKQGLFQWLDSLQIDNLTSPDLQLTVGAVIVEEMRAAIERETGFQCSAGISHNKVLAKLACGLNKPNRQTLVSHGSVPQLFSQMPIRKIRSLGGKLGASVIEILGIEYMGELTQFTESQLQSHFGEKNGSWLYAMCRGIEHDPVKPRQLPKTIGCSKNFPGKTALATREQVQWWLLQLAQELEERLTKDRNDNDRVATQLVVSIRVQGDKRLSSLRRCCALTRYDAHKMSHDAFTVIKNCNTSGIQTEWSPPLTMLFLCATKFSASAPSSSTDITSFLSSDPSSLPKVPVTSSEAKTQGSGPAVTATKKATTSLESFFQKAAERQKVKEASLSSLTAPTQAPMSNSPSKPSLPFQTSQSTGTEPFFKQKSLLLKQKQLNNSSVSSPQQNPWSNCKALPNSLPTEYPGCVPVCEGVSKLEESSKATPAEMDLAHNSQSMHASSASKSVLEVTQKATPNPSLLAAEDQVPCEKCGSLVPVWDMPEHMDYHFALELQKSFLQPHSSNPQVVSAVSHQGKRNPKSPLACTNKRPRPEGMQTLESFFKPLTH
# UniProt Q9UBT6: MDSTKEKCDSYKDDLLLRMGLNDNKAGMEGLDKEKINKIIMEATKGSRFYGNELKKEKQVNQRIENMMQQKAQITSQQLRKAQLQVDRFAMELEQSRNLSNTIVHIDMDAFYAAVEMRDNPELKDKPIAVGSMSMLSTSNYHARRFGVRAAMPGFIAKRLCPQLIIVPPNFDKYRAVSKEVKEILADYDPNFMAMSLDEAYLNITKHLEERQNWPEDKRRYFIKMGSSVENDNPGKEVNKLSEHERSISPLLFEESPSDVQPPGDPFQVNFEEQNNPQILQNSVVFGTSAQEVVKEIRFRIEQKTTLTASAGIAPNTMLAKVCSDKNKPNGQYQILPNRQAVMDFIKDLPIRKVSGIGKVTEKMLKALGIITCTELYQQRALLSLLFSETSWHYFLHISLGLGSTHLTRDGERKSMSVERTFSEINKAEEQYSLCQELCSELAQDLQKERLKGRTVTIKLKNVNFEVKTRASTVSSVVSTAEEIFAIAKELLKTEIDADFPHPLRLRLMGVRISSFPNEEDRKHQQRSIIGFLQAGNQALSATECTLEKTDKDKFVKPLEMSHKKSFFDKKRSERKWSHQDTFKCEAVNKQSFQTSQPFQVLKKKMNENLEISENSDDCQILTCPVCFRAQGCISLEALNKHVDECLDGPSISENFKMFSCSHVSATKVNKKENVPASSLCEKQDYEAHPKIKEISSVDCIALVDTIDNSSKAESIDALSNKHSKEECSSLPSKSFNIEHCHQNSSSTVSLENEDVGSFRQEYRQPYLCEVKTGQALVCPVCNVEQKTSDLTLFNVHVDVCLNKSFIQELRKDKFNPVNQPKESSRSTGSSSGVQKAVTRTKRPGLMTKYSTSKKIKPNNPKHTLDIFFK
# UniProt P54132: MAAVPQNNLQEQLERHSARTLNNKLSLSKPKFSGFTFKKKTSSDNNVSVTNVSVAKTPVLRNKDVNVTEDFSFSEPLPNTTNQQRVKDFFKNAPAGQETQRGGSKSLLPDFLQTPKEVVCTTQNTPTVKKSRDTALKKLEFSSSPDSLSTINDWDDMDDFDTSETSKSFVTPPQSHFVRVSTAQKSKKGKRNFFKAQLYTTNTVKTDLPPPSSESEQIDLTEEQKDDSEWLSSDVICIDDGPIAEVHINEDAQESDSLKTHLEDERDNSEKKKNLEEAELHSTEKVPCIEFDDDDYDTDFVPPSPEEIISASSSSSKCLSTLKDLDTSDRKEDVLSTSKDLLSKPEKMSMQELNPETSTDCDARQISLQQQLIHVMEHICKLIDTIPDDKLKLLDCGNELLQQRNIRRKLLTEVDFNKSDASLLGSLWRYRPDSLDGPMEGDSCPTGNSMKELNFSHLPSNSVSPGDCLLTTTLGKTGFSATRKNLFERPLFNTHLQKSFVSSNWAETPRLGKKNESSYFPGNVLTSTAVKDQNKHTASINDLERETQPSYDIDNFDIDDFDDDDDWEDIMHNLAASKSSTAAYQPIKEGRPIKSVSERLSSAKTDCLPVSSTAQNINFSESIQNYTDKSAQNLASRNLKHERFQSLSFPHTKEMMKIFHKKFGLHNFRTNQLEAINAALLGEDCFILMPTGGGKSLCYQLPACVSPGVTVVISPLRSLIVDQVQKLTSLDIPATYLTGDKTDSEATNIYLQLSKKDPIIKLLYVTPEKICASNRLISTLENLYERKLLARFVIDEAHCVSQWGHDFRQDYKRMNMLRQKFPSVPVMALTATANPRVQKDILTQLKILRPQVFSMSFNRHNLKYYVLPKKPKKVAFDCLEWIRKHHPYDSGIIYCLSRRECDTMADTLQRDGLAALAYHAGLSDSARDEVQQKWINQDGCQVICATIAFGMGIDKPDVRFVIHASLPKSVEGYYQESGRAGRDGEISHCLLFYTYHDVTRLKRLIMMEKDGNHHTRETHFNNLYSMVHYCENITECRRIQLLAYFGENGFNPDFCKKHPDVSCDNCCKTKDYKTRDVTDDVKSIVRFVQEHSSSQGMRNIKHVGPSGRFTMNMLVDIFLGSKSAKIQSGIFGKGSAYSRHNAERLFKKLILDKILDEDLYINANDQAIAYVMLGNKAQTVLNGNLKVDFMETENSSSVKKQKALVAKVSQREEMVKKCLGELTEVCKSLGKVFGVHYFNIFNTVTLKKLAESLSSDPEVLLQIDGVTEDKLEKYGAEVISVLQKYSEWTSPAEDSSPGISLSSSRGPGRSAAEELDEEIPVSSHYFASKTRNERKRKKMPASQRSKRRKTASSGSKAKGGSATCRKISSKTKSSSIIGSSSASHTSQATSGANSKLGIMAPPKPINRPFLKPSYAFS
# The shares of active, inactive and inconclusive entries below differ from those in the screen. For part of these data: Where the call is inconclusive, the potency comes from a doubtful curve fit. Active and inactive are the calls of the source. Calls follow the shape of the dose curve; as a rule, active = well fitted curve in the direction sought with a large enough effect; inconclusive = small, poorly fitted or top-dose-only effect, or another doubt; inactive = no such curve, though single readings can be large; an effect the other way counts as inactive or inconclusive.
# Tests used:
# [1] = molecular target: DNA polymerase iota (Homo sapiens) (UniProt Q9UNA4); test: qHTS for Inhibitors of Polymerase Iota: Confirmatory Assay for Cherry-picked Compounds (AID 720496); details: Pol iota primer extension, TAMRA/BHQ fluorescence
# In short: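 Extension of a quenched TAMRA-reporter/BHQ-2-template DNA substrate (50 nM) by 10 nM Pol iota after 15 min compound preincubation. Strand-displacement fluorescence (525/598 nm) was read kinetically at 0 and 10 min. Buffer-only wells served as negative control.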
# [2] = molecular target: DNA polymerase eta (Homo sapiens) (UniProt Q9Y253); test: qHTS for Inhibitors of Polymerase Eta: Confirmatory Assay for Cherry-picked Compounds (AID 720502); details: Pol eta primer extension, TAMRA/BHQ fluorescence, 10 min
# In short: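 Pol eta 10 nM; substrate 50 nM final (unlabeled primer, TAMRA reporter, BHQ-2 template); preincub. 15 min RT; reads t=0 and t=10 min at ex525/em598.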
# [3] = molecular target: DNA polymerase kappa (Homo sapiens) (UniProt Q9UBT6); test: qHTS for Inhibitors of Polymerase Kappa: Confirmatory Assay for Cherry-picked Compounds (AID 720501); details: purified Pol-kappa, fluorescent strand-displacement substrate
# In short: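 Human Pol-kappa, dispensed at 10 nM, was preincubated with compounds for 15 min at room temperature. Reactions were started with primer/template substrate (50 nM final) carrying a TAMRA reporter strand and BHQ-2-quenched template, and fluorescence (ex 525/em 598 nm) was read at 0 and 10 min.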
# [4] = qHTS for Inhibitors of WRN Helicase: Thiazole Orange DNA Binding Counterscreen (AID 720499); details: thiazole orange DNA binding displacement, fluorescence; series mostly up to 57.1 µM;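 also: drop in dye fluorescence marks compound binding to DNA; nearly all actives have a fitted effect of over 60% in size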
# In short: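 Counterscreen to remove nonspecific DNA binders from WRN helicase hits. Compounds were incubated 15 min at room temperature with 50 nM DNA and 100 nM ThO, then fluorescence was recorded (480 nm excitation, 530 nm emission).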
# [5] = molecular target: RecQ-like DNA helicase BLM (Homo sapiens) (UniProt P54132); test: qHTS for Inhibitors of WRN Helicase: BLM Helicase Counterscreen for WRN Inhibitors (AID 720503); details: Recombinant BLM helicase DNA unwinding, red fluorescence; series mostly up to 57.1 µM; also: nearly all actives have a fitted effect of over 60% in size
# In short: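 Reactions were started with 100 nM DNA substrate and 2 mM ATP (final) after compound and 1 nM BLM stood 15 min at room temperature in Tris-HCl pH 8.0 buffer with NaCl, MgCl2, DTT and Tween-20. Two red-fluorescence reads 15 min apart were normalized against DMSO and no-enzyme wells.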
# Potency is read from the fitted curve at half-maximal effect.
smiles,measurement,setting,value
CCc1ccccc1NC(=O)CSc1ccsc1[N+](=O)[O-],Potency,[1],"inconclusive: 67 µM [inhibitor, partial curve]"
same,Potency,[2],active: 60.1 µM
COc1ccc2nc(C)cc(N/N=C/c3cccc(OC)c3O)c2c1,Potency,[1],active: 29.9 µM
same,Potency,[3],"inconclusive: 18.9 µM [inhibitor, full curve]"
O=C(N/N=C/c1ccc(O)c(O)c1)N/N=C/c1ccc(O)c(O)c1,Potency,[1],active: 2.99 µM
same,Potency,[4],"inconclusive: 19.2 µM [inhibitor, partial curve, poor fit]"
same,Potency,[5],active: 1.08 µM
COC(=O)c1ccc(-c2ccc(C(c3c(C)[nH][nH]c3=O)c3c(C)[nH][nH]c3=O)o2)cc1,Potency,[1],"inconclusive: 75.2 µM [inhibitor, partial curve]"
same,Potency,[2],active: 75.7 µM
O=C(COC(=O)c1ccc([N+](=O)[O-])o1)NC1CCS(=O)(=O)C1 (stereo not given),Potency,[1],"inconclusive: 84.4 µM [inhibitor, single point]"
same,Potency,[2],"inconclusive: 95.3 µM [inhibitor, single point]"
COc1ccccc1CNC(=O)CCn1cnc2ccccc2c1=O,Potency,[1],"inconclusive: 67 µM [inhibitor, partial curve]"
same,Potency,[3],"inconclusive: 26.7 µM [inhibitor, partial curve, poor fit]"
COc1ccc(NC(=O)C2=C(C)Nc3nc(SCc4ccccc4C)nn3C2c2cc(OC)c(O)c(OC)c2)cc1 (stereo not given),Potency,[1],"inconclusive: 33.6 µM [inhibitor, partial curve, poor fit]"
same,Potency,[3],"inconclusive: 5.97 µM [inhibitor, full curve, poor fit]"

# At a glance, part of the list above:
smiles,measurement,setting,value
COc1ccc2nc(C)cc(N/N=C/c3cccc(OC)c3O)c2c1,Potency,[3],"inconclusive: 18.9 µM [inhibitor, full curve]"
O=C(N/N=C/c1ccc(O)c(O)c1)N/N=C/c1ccc(O)c(O)c1,Potency,[1],active: 2.99 µM
